We go through seven molecules from article PMC3699650, “Structural Insights into the Abscisic Acid Stereospecificity by the ABA Receptors PYR/PYL/RCAR” (PLoS ONE, 2013).

Chains of the proteins cited; added tags and fusions are not shown. Lines headed by an entry give the natural chain unless they say otherwise; changes in a name come on top.
UniProt Q9CAJ0: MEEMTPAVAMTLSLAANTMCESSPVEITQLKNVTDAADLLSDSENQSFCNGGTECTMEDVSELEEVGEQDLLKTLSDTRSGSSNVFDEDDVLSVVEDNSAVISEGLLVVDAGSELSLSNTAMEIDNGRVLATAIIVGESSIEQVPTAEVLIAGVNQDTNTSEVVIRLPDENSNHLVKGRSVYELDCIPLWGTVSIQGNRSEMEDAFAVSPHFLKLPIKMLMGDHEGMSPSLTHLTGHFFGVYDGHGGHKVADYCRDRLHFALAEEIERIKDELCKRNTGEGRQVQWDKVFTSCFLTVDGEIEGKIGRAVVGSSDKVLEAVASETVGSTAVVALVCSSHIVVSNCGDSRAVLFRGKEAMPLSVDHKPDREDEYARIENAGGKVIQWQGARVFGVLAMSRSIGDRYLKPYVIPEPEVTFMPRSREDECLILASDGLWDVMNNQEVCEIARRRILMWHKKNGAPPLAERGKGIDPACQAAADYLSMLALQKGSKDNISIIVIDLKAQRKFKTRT

Results are given in words; binding and its absence hold for the method and conditions named. Binding calls can cover weak binding; strength is not graded here.

The labels stand for the following.
B1: PYL3 (wild type) (receptor, UniProt Q9SSM7 1-209)
chain: MNLAPIHDPSSSSTTTTSSSTPYGLTKDEFSTLDSIIRTHHTFPRSPNTCTSLIAHRVDAPAHAIWRFVRDFANPNKYKHFIKSCTIRVNGNGIKEIKVGTIREVSVVSGLPASTSVEILEVLDEEKRILSFRVLGGEHRLNNYRSVTSVNEFVVLEKDKKKRVYSVVLESYIVDIPQGNTEEDTRMFVDTVVKSNLQNLAVISTASPT
B2: PYL3 F81A (receptor, UniProt Q9SSM7 1-209)
chain: MNLAPIHDPSSSSTTTTSSSTPYGLTKDEFSTLDSIIRTHHTFPRSPNTCTSLIAHRVDAPAHAIWRFVRDFANPNKYKHAIKSCTIRVNGNGIKEIKVGTIREVSVVSGLPASTSVEILEVLDEEKRILSFRVLGGEHRLNNYRSVTSVNEFVVLEKDKKKRVYSVVLESYIVDIPQGNTEEDTRMFVDTVVKSNLQNLAVISTASPT
B3: PYL3 H139A (receptor, UniProt Q9SSM7 1-209)
chain: MNLAPIHDPSSSSTTTTSSSTPYGLTKDEFSTLDSIIRTHHTFPRSPNTCTSLIAHRVDAPAHAIWRFVRDFANPNKYKHFIKSCTIRVNGNGIKEIKVGTIREVSVVSGLPASTSVEILEVLDEEKRILSFRVLGGEARLNNYRSVTSVNEFVVLEKDKKKRVYSVVLESYIVDIPQGNTEEDTRMFVDTVVKSNLQNLAVISTASPT
B4: PYL3 Y144A (receptor, UniProt Q9SSM7 1-209)
chain: MNLAPIHDPSSSSTTTTSSSTPYGLTKDEFSTLDSIIRTHHTFPRSPNTCTSLIAHRVDAPAHAIWRFVRDFANPNKYKHFIKSCTIRVNGNGIKEIKVGTIREVSVVSGLPASTSVEILEVLDEEKRILSFRVLGGEHRLNNARSVTSVNEFVVLEKDKKKRVYSVVLESYIVDIPQGNTEEDTRMFVDTVVKSNLQNLAVISTASPT
B5: PYL3 K79A (receptor, UniProt Q9SSM7 1-209)
chain: MNLAPIHDPSSSSTTTTSSSTPYGLTKDEFSTLDSIIRTHHTFPRSPNTCTSLIAHRVDAPAHAIWRFVRDFANPNKYAHFIKSCTIRVNGNGIKEIKVGTIREVSVVSGLPASTSVEILEVLDEEKRILSFRVLGGEHRLNNYRSVTSVNEFVVLEKDKKKRVYSVVLESYIVDIPQGNTEEDTRMFVDTVVKSNLQNLAVISTASPT
B6: PYL3 F188A (receptor, UniProt Q9SSM7 1-209)
chain: MNLAPIHDPSSSSTTTTSSSTPYGLTKDEFSTLDSIIRTHHTFPRSPNTCTSLIAHRVDAPAHAIWRFVRDFANPNKYKHFIKSCTIRVNGNGIKEIKVGTIREVSVVSGLPASTSVEILEVLDEEKRILSFRVLGGEHRLNNYRSVTSVNEFVVLEKDKKKRVYSVVLESYIVDIPQGNTEEDTRMAVDTVVKSNLQNLAVISTASPT
B7: PYL3 V192A/V193A (receptor, UniProt Q9SSM7 1-209)
chain: MNLAPIHDPSSSSTTTTSSSTPYGLTKDEFSTLDSIIRTHHTFPRSPNTCTSLIAHRVDAPAHAIWRFVRDFANPNKYKHFIKSCTIRVNGNGIKEIKVGTIREVSVVSGLPASTSVEILEVLDEEKRILSFRVLGGEHRLNNYRSVTSVNEFVVLEKDKKKRVYSVVLESYIVDIPQGNTEEDTRMFVDTAAKSNLQNLAVISTASPT

This assay concerns the target GST-HAB1 (residues 169–511) (Arabidopsis thaliana) (UniProt Q9CAJ0). Put plainly: pull-down; GST-mediated pulldown of PYL3 proteins by GST-HAB1 in the presence of (−)-ABA; Coomassie Brilliant Blue staining; both purified.
Take B1: the binding entry is reported as “binds”.
The entry for B2 is “no binding”; for B3 it is “no binding”.
As for B4, the binding entry is “no binding”.
The entry for B5 is “no binding”.
With B6 the entry was “no binding”; with B7, “no binding”.
